The record followed here is the supplement of paper PMC12819154, “High-throughput peptide-centric local stability assay extends protein–ligand identification to membrane proteins, tissues and bacteria” (Nature Structural & Molecular Biology, 2025).

Chains of the proteins cited; added tags and fusions are not shown. Lines headed by an entry give the natural chain unless they say otherwise; changes in a name come on top.
UniProt Q9Y5X1: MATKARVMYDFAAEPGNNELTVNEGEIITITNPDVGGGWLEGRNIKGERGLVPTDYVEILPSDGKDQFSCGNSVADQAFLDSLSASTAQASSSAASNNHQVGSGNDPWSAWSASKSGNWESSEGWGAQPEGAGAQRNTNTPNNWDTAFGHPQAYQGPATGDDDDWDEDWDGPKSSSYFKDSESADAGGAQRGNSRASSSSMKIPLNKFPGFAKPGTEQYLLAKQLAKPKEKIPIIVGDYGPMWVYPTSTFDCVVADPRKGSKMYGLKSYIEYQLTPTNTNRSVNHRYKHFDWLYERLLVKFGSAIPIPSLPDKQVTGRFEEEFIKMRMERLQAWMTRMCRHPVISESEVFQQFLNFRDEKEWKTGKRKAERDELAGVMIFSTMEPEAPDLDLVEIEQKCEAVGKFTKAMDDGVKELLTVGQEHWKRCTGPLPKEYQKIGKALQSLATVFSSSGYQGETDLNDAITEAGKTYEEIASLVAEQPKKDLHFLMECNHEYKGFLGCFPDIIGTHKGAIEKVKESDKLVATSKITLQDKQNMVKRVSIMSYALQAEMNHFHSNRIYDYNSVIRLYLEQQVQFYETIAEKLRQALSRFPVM
UniProt Q9Y2K5: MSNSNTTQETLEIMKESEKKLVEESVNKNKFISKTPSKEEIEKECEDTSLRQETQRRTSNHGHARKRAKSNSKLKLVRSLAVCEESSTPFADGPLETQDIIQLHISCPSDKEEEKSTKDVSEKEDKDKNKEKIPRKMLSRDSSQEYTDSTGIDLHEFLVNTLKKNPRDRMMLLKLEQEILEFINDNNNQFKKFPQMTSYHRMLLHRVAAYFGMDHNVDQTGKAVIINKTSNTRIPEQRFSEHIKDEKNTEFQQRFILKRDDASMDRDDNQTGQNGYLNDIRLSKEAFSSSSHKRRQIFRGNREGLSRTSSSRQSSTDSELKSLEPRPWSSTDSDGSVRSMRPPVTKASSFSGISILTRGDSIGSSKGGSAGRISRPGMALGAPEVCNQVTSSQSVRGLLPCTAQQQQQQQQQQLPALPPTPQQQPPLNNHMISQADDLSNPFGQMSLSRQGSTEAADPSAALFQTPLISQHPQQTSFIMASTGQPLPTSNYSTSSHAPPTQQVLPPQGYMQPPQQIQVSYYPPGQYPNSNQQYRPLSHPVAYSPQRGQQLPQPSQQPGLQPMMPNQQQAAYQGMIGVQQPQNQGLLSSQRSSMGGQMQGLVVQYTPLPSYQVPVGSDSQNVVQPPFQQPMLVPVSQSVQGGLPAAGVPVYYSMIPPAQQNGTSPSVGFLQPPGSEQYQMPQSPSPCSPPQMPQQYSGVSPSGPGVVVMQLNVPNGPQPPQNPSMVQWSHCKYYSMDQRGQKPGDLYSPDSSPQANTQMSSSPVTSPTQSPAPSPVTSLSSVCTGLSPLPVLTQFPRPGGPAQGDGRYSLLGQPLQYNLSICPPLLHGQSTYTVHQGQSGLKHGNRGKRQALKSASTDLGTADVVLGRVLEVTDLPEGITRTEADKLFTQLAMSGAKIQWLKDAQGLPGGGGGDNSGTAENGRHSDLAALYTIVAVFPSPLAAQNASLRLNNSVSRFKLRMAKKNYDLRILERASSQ
UniProt Q9Y4E5: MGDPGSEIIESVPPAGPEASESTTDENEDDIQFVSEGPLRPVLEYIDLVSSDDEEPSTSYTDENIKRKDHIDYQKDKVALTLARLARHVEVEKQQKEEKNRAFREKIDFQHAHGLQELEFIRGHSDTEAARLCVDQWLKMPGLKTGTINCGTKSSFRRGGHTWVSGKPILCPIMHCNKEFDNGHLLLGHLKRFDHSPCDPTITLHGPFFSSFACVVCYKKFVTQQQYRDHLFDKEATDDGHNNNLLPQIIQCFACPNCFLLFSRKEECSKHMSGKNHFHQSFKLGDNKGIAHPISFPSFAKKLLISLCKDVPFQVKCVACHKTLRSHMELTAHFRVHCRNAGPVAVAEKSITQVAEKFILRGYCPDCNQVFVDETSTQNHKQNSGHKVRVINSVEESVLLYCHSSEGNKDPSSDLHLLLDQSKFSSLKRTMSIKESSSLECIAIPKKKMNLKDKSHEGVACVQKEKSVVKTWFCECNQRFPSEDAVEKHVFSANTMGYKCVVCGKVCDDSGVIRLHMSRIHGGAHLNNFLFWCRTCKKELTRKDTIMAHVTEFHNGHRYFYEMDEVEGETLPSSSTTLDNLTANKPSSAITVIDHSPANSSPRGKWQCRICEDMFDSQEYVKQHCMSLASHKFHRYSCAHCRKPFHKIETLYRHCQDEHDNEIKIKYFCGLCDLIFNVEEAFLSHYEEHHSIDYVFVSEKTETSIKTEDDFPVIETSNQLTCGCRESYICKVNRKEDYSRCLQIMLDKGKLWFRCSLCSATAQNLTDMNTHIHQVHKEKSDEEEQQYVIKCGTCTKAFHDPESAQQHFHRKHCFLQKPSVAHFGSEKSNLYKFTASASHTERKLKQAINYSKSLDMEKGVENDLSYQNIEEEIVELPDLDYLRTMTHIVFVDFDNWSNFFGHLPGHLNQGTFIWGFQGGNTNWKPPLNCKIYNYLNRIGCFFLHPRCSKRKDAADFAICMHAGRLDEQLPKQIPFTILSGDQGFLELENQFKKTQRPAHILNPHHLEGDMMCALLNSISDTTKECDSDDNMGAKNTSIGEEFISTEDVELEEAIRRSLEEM
UniProt Q9Y2U8: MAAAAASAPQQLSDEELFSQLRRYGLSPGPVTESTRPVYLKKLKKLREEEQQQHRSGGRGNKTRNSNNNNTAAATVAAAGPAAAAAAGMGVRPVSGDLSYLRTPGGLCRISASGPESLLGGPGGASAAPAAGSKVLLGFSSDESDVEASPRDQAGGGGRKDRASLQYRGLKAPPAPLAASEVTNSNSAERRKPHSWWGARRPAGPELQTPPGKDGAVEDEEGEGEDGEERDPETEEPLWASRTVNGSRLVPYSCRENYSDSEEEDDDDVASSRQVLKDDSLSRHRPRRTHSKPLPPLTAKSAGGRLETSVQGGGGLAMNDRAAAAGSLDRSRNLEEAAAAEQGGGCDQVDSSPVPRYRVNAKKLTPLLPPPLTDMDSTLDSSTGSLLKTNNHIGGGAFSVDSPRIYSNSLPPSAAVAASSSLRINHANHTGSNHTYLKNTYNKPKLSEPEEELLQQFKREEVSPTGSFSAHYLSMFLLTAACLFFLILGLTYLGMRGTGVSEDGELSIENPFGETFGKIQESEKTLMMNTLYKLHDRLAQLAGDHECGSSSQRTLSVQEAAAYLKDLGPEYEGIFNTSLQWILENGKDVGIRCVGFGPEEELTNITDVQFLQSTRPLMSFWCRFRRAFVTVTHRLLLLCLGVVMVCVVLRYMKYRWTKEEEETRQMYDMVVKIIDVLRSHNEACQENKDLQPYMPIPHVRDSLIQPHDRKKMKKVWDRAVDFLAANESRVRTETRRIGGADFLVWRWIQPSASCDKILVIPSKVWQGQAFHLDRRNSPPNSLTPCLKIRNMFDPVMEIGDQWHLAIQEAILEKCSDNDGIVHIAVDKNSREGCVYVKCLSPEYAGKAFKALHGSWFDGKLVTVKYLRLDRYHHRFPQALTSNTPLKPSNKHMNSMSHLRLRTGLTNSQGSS
UniProt Q9Y3B2, whole entry: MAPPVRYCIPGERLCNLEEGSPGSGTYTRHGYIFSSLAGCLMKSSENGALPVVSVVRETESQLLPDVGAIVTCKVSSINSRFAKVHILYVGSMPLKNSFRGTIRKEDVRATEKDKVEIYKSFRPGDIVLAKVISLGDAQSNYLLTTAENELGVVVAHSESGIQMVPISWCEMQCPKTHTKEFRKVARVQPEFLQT
UniProt Q9Y2K1: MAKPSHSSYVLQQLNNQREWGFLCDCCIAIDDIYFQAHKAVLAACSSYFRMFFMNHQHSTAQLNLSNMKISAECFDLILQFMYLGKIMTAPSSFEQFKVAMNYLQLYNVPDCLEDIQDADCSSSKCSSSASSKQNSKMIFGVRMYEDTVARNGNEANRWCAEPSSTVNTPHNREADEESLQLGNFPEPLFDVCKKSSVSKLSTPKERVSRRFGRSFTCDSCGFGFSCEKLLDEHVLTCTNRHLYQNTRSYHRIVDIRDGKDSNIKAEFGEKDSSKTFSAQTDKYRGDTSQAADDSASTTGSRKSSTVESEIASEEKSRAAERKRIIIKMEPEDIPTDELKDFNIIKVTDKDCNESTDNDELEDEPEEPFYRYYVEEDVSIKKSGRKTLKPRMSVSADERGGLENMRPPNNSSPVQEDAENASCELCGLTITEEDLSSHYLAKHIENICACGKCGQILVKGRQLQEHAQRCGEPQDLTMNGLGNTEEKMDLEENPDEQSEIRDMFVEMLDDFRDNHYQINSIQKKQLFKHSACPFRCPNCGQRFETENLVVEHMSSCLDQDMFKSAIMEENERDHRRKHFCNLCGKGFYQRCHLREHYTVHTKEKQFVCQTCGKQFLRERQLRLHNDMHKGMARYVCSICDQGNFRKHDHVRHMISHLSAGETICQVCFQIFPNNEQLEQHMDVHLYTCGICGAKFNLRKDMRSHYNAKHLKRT
UniProt Q9Y2L5: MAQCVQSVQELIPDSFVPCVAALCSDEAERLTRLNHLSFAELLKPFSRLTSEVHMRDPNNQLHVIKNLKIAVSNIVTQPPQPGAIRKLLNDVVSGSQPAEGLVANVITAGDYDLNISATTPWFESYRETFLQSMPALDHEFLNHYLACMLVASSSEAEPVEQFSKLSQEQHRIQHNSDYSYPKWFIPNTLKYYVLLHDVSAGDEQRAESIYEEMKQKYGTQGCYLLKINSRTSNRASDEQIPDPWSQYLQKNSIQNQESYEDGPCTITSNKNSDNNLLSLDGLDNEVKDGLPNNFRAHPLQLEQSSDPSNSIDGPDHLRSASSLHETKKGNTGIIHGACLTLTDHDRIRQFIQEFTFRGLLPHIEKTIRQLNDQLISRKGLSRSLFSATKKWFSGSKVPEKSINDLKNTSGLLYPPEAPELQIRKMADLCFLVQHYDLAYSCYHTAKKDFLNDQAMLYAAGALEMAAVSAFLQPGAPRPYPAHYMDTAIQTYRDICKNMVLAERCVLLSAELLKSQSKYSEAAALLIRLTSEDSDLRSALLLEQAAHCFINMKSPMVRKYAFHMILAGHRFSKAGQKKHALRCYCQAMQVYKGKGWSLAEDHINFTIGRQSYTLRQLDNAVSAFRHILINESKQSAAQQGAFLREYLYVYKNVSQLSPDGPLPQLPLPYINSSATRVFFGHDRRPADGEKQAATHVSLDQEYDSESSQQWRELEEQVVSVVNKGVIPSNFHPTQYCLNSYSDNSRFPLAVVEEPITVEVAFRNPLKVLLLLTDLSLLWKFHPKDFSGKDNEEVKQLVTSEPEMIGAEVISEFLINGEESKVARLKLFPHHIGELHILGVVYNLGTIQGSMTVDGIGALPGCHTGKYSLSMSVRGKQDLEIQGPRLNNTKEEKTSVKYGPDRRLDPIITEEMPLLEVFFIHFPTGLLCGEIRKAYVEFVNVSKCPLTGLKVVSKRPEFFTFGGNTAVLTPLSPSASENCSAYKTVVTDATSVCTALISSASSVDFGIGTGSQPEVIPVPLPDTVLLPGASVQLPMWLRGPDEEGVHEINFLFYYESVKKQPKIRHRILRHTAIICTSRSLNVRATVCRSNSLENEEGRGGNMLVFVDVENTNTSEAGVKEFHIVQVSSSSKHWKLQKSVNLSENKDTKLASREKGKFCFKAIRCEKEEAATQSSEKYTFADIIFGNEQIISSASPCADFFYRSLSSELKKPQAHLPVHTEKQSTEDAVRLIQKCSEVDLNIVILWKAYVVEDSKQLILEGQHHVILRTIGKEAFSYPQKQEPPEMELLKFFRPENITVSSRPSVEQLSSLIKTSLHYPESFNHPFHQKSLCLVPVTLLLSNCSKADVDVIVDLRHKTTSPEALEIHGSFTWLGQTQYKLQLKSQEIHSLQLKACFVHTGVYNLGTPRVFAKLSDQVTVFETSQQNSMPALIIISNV
UniProt Q9Y6A4: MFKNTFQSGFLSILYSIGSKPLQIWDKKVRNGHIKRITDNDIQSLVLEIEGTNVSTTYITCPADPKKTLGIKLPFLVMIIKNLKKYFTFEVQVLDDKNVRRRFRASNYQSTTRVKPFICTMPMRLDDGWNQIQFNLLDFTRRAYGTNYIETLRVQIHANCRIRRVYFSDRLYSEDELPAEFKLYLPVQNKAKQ
UniProt Q9Y314: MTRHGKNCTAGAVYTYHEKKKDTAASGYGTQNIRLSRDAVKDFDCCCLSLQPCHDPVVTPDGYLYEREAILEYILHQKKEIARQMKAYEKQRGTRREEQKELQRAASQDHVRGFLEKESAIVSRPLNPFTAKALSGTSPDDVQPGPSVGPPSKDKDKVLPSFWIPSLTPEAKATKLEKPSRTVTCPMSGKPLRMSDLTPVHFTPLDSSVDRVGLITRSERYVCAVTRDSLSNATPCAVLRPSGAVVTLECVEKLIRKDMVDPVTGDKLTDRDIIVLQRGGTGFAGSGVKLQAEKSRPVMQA
UniProt Q9Y6D0, whole entry: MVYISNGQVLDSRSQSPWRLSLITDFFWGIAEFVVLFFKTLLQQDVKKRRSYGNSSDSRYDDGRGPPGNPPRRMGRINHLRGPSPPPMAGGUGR
UniProt Q9Y5L2: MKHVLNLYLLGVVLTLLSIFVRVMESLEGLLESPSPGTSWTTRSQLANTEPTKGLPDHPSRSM

This is one part of the list. Most values lie at the level of the controls, where differences are scatter.

Compound in this experiment: Cc1nc(Nc2ncc(C(=O)Nc3c(C)cccc3Cl)s2)cc(N2CCN(CCO)CC2)n1 [dasatinib]
Description: log2 fold change of tryptic peptide abundance, ligand vs vehicle (limited proteolysis) (log2 ratio); higher = more trypsin-susceptible (destabilized). The settings on record: ligand concentration: 5 uM; sample: K562 cleared lysate.
On to “USP16 (peptide sequence: QMLISLAPPVLTLHLK, peptide start residue: 683) (UniProt Q9Y5T5)”, for which the log2 fold change was 0.709.
For the target “CCDC9 (peptide sequence: EWDAEKTDGMFK, peptide start residue: 292) (UniProt Q9Y3X0)”, the log2 fold change was -0.134.
On to “SNX9 (peptide sequence: HPVISESEVFQQFLNFRDEK, peptide start residue: 341) (UniProt Q9Y5X1)”, for which the log2 fold change was 0.621.
As to “UniProt Q9Y2K5 (peptide sequence: ASSFSGISILTR, peptide start residue: 347)”, the log2 fold change is -0.336.
Turning to “ARFGEF1 (peptide sequence: CISQLELAQLIGTGVKPR, peptide start residue: 1050) (UniProt Q9Y6D6)”, the log2 fold change was 0.127.
For the target “NUBP2 (peptide sequence: AVHQCDRGWAPVFLDR, peptide start residue: 68) (UniProt Q9Y5Y2)”, the log2 fold change is 0.386.
The value for “BTRC (peptide sequence: TYTYISR, peptide start residue: 599) (UniProt Q9Y297)” was 0.281; that for “SNX8 (peptide sequence: EPESVEQLESR, peptide start residue: 365) (UniProt Q9Y5X2)” was 0.138; that for “IFT52 (peptide sequence: STILFNAYKK, peptide start residue: 7) (UniProt Q9Y366)” was 0.352.
Turning to “TLN1 (peptide sequence: ALGDLISATK, peptide start residue: 2090) (UniProt Q9Y490)”, the log2 fold change is -0.101.
In the case of “UniProt Q9Y6E0 (peptide sequence: ADPEELFTK, peptide start residue: 30)” it was -0.38; in that of “ZNF451 (peptide sequence: AFHDPESAQQHFHR, peptide start residue: 797) (UniProt Q9Y4E5)”, -0.777.
For the target “LEMD3 (peptide sequence: THSKPLPPLTAK, peptide start residue: 289) (UniProt Q9Y2U8)”, the log2 fold change was 0.494.
Take “WNK2 (peptide sequence: GTFTDDLHK, peptide start residue: 2244) (UniProt Q9Y3S1)”: the log2 fold change was -0.115.
The value for “TELO2 (peptide sequence: ALEGLVYR, peptide start residue: 537) (UniProt Q9Y4R8)” was -0.171; that for “NOC2L (peptide sequence: LFHEVVQAFR, peptide start residue: 169) (UniProt Q9Y3T9)” was -1.16.
In the case of “SNX10 (peptide sequence: RFPEEDEEGK, peptide start residue: 155) (UniProt Q9Y5X0)” it was 0.0754; in that of “UniProt Q9Y6X3 (peptide sequence: FLRETLK, peptide start residue: 481)”, -0.22; in that of “EXOSC1 (peptide sequence: HGYIFSSLAGCLMK, peptide start residue: 30) (UniProt Q9Y3B2)”, 0.0636.
For “ZBTB1 (peptide sequence: YYVEEDVSIKK, peptide start residue: 372) (UniProt Q9Y2K1)”, the log2 fold change is 0.257.
With “UniProt Q9Y2L5 (peptide sequence: QSAAQQGAFLR, peptide start residue: 634)”, the log2 fold change was 0.143.
With “UniProt Q9Y6A4 (peptide sequence: LYLPVQNK, peptide start residue: 183)”, the log2 fold change was 0.0393.
In the case of “NOSIP (peptide sequence: DMVDPVTGDKLTDRDIIVLQR, peptide start residue: 258) (UniProt Q9Y314)”, the log2 fold change turned out to be 2.18.
Consider “MRPS18C (peptide sequence: AQIMGFMPVTYKDPAYLKDPK, peptide start residue: 114) (UniProt Q9Y3D5)”, for which the log2 fold change was -0.117.
“TMEM98 (peptide sequence: TSASVSDIIVVAK, peptide start residue: 121) (UniProt Q9Y2Y6)”: the log2 fold change came out at 0.394.
In the case of “CHMP3 (peptide sequence: IPEIQATMR, peptide start residue: 120) (UniProt Q9Y3E7)”, the log2 fold change stood at 0.0781.
As to “UniProt Q9Y283 (peptide sequence: EQHVSSDLQGTNSR, peptide start residue: 673)”, the log2 fold change was -0.34.
On to “UniProt Q9Y2B5 (peptide sequence: QMMENLVIAK, peptide start residue: 188)”, for which the log2 fold change was found to be 0.259.
For the target “UniProt Q9Y592 (peptide sequence: QNVPFEDYTR, peptide start residue: 605)”, the log2 fold change was 0.145.
Turning to “DRG1 (peptide sequence: NKATAHHLGLLK, peptide start residue: 21) (UniProt Q9Y295)”, the log2 fold change is -0.407.
As to “RAPGEF2 (peptide sequence: AQSLPQPQQQPPPAHK, peptide start residue: 1034) (UniProt Q9Y4G8)”, the log2 fold change is -0.233.
Turning to “CLIC4 (peptide sequence: KPADLQNLAPGTHPPFITFNSEVK, peptide start residue: 62) (UniProt Q9Y696)”, the log2 fold change amounted to 0.275.
Turning to “KLF13 (peptide sequence: EGPESRPEGAAVAATPTLPR, peptide start residue: 29) (UniProt Q9Y2Y9)”, the log2 fold change was 0.31.
For “INPP5F (peptide sequence: VNFLKPNLK, peptide start residue: 813) (UniProt Q9Y2H2)”, the log2 fold change is 0.454.
As for “UniProt Q9Y6D0 (peptide sequence: SYGNSSDSR, peptide start residue: 51)”, the log2 fold change stood at 0.135.
Consider “UniProt Q9Y5L2 (peptide sequence: GLPDHPSR, peptide start residue: 54)”, for which the log2 fold change was 0.0648.
Turning to “NUDC (peptide sequence: DMVVDIQR, peptide start residue: 197) (UniProt Q9Y266)”, the log2 fold change is -0.203.
